According to US12655458B2 (priority 2021, dated 2026):

Assay: general procedure: Fmoc solid-phase peptide synthesis; Rink amide MBHA resin or 2-chlorotrityl chloride resin; PyBop/DIEA
Settings: head-to-tail ring, sequence written open; for cyclisation yield: cyclisation step; for step yield: late stage modification step

| Substance | cyclisation yield [%] | step yield [%] |
| --- | --- | --- |
| ACRCLCRRGDCRCICRGN(OH)SL | 95 | >95 |
| GGVCPKILKKCRRDSDCPGACICRGNGYCGSGSN(OH)IV | 95 | >95 |
| GLPVCGETCFGGTCNTPGCSCTWPICTRN(OH)IV | 80 | >95 |
| GRCTKSIPPICFPN(OH)IV | 85 | >95 |
